Screening data, single-dose tests

By UniProt entry, the sequences of proteins in these tests, tags left out.
UniProt P9WFT3, whole entry: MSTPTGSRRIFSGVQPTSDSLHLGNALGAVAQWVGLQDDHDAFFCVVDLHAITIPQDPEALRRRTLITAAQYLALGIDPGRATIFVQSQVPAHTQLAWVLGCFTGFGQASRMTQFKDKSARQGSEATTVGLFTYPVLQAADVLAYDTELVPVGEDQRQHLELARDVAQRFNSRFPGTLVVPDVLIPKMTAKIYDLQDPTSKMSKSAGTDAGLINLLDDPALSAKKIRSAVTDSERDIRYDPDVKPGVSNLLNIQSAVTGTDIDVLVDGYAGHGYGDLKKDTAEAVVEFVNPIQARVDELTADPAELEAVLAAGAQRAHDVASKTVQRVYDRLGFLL

Each number is a percent effect as filed.
The controls that fix the scale are not given in the record; negative values are as filed.
This is an unselected part of the compounds tested.

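Tryptophan-tRNA ligase, Mycobacterium tuberculosis (UniProt P9WFT3). Enzyme assay of tryptophanyl-tRNA synthetase; the read-out is not stated. Concentration: 10 µM. Direction is not recorded; retested compounds ran higher, which suggests that high means inhibition. About 65,000 compounds were tested under these conditions; 0.098% (about 64) showed 50% or more at least once.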

Result for CC(C)NC(=O)CN(C)C(=O)c1csc(Cc2ccccc2F)n1 was 0.4542%.
Result for CCc1csc(C2CCCN(C(=O)c3cnc[nH]3)C2)n1 (stereo not given) was 4.187%.
Result for Cc1cc2n(n1)CC(CNC1CCN(c3ccccn3)CC1)CN2 (stereo not given) was 0.2639%.
Result for CC(OCC1CC1)C(=O)NCc1cccc(CN2CCN(C)CC2)c1 (stereo not given) was 2.388%.
Result for Cc1ccc(OC[C@@H]2CNC[C@H](C(=O)NCC3CCCO3)C2)cn1 (stereo not given in full) was -3.229%.
Result for Nc1cc(N2CCOCC(Cc3ccc4[nH]ccc4c3)C2)ncn1 (stereo not given) was 2.824%.
Result for Cc1nc(CNC(=O)C(C)Oc2ccccc2F)no1 (stereo not given) was -5.013%.
Result for O=C(c1c(F)cccc1F)N1CCOCC1 was -1.684%.
Result for CN1CCN(C(=O)c2[nH]nnc2Nc2ccccc2F)CC1 was -0.2712%.
Result for CCCN1CCN(C(=O)C(C)n2cc(Br)cn2)CC1 (stereo not given) was -1.74%.
Result for O=C(COc1ccc2c(c1)CCCC2=O)NCc1ccco1 was 6.559%.
Result for Cc1ccc(CNC2CCc3[nH]c(=O)ccc3C2)cc1C (stereo not given) was -7.532%.
Result for COc1ccc(CNC(=O)Nc2ccc(S(=O)(=O)C(F)F)cc2)cc1 was -3.128%.
Result for O=C(C1CC=CC1)N1CCC2(CC1)CNCCO2 was 7.655%.
Result for COc1cccc2c1OCC(NCCc1cnn(-c3ccccc3)c1)C2 (stereo not given) was 4.339%.
Result for CC(=O)N1CCN(c2ncnc3cc4c(cc23)OCCO4)CC1 was 2.332%.
Result for CC1CN(CC(=O)NC(=O)NCc2ccccc2)CCO1 (stereo not given) was 1.165%.
Result for Cc1cc(CN2CCc3nn(C(C)C)c(=O)cc3C2)no1 was -0.5629%.
Result for c1cnn(CCCO[C@@H]2CC[C@H]3[C@H]2OCCN3CC2CCOCC2)c1 was -3.457%.
Result for O=C(Nc1cn[nH]c1)NC1CCN(c2ccccc2OC(F)F)C1 (stereo not given) was -3.372%.
Result for Cc1ccc(NC(=O)C2CSCN2C(=O)c2ccncc2)c(C)c1 (stereo not given) was 3.075%.
Result for Cc1cc2c(N3CCCC(OCc4cccnc4)C3)ncnc2s1 (stereo not given) was 2.855%.
Result for CSc1[nH]nc(NC(=O)c2cccs2)c1C#N was -0.712%.
Result for CN(Cc1nncn1C)c1nccc(N2CCC(O)CC2)n1 was -0.6399%.
Result for O=C1CN([C@@H]2CC[C@@H](NS(=O)(=O)c3ccccc3)[C@H]2O)CCN1 was -5.026%.
Result for Fc1ccc(-c2nc(CN3CCCCC3Cn3cncn3)co2)cc1 (stereo not given) was -4.802%.
Result for CC(C(=O)O)N1CC2(CCC1=O)CCN(CCSc1ccccc1)CC2 (stereo not given) was -0.4724%.
Result for c1coc(CN2CCOC3(COCCN(Cc4ccncc4)C3)C2)c1 (stereo not given) was -0.5339%.
Result for COc1ccc(NC(=O)N2CCOCC(CN(C)C)C2)c(C)c1 (stereo not given) was -2.874%.
Result for Cc1ccsc1CNC(=O)CSc1nnc[nH]1 was 2.621%.
Result for Cc1ccc(N2CCO[C@H]3CN(Cc4ccoc4)C[C@H]32)nn1 was -3.285%.
Result for COc1ccc(OC)c(C(C)NS(=O)(=O)c2cn(C)nc2C)c1 (stereo not given) was 0.2447%.
Result for Cc1cc(=O)[nH]c(NCCNC(=O)c2ccccc2N2CCCC2)n1 was 19.29%.
Result for CN1CCN(c2ccc(F)cc2NC(=O)NCCn2ccnc2)CC1 was 1.769%.
Result for O=C1[C@H]2CN(C3CCOCC3)C[C@H]2CN1Cc1ccncc1 was -6.202%.
Result for Cc1ccc(O)c(C(=O)N2CCCC2c2nncn2CC(C)C)c1 (stereo not given) was -3.767%.
Result for Cn1cc(C(=O)N2CCCCC2CCc2ccc(O)cc2)cn1 (stereo not given) was -0.8922%.
Result for Cc1n[nH]c(C)c1S(=O)(=O)N(C)Cc1nn(C)c(Cl)c1Cl was -4.658%.
Result for Cc1nonc1C1CCCN1C(=O)c1cc2n(n1)CCCN(C(C)C)C2 (stereo not given) was 5.357%.
Result for Cc1ccc(S(=O)(=O)NCC2COCc3c(C)nnn3C2)cc1F (stereo not given) was -0.3487%.
Result for COCCN1CCC(CNCc2c[nH]nc2C(C)(C)C)CC1 was 0.5206%.
Result for CCC(NC(=O)CNC(=O)OC)c1cc(F)ccc1F (stereo not given) was 2.569%.
Result for Cn1nnc2c1C(COCC1CC1)CN(C(=O)C1=CCCC1)C2 (stereo not given) was -12.02%.
Result for CSc1ccccc1C(=O)C1CCCN(Cc2cc(C(C)C)[nH]n2)C1 (stereo not given) was -1.924%.
Result for Cc1csc(CCNC(=O)C2CCOC2)n1 (stereo not given) was 1.201%.
Result for CC(C)c1sc(Br)nc1C(=O)NCc1cccnc1 was 11.44%.
Result for Cc1ccc(CN2CCO[C@@H]3C[C@@H](C(=O)NC(C)C)C[C@H]32)o1 was -2.509%.

Once more, the final 5:

| structure | effect |
|---|---|
| `Cn1nnc2c1C(COCC1CC1)CN(C(=O)C1=CCCC1)C2` (stereo not given) | -12.02 |
| `CSc1ccccc1C(=O)C1CCCN(Cc2cc(C(C)C)[nH]n2)C1` (stereo not given) | -1.924 |
| `Cc1csc(CCNC(=O)C2CCOC2)n1` (stereo not given) | 1.201 |
| `CC(C)c1sc(Br)nc1C(=O)NCc1cccnc1` | 11.44 |
| `Cc1ccc(CN2CCO[C@@H]3C[C@@H](C(=O)NC(C)C)C[C@H]32)o1` | -2.509 |

From ChEMBL document CHEMBL3988442, “University of Dundee, Small-Polar-MMV Screening Library” (2021).